Patent US20050079503A1, “Binding domain of Siah (seven in absentia homolog) protein” (PETER MacCALLUM CANCER INSTITUTE, ST. VINCENT'S INSTITUTE …, priority 2001, published 2005)
Results are given in words; binding and its absence hold for the method and conditions named. Some results given as binding are weak or reduced against the parent protein; the word gives no strength. Tags and fused reporters may be left off the sequences shown.

T1: MBP-Siah (UniProt P61092)
T1 sequence (looked up): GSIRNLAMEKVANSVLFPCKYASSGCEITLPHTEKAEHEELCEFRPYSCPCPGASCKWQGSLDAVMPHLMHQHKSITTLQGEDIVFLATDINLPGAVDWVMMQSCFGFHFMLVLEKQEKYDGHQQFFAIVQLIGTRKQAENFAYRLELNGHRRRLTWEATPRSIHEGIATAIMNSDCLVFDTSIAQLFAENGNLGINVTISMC


molecular target: T1, MBP-Siah; experiment: competition ELISA: peptide competes with plate-bound GST-PHYL108-130 for MBP-Siah; anti-MBP and HRP antibody, ABTS

binding, binds:
QQERTALRPVAMVRPTVRVQPQL [K (bar 6 of FIG 27)]
QQERTKARPVAMVRPTVRVQPQL [L (bar 7 of FIG 27)]
QQERTKLAPVAMVRPTVRVQPQL [R (bar 8 of FIG 27, asterisk)]
QQERTKLRAVAMVRPTVRVQPQL [P (bar 9 of FIG 27)]
QQERTKLRPVGMVRPTVRVQPQL [A (bar 11 of FIG 27, asterisk)]
QQERTKLRPVAAVRPTVRVQPQL [M (bar 12 of FIG 27)]
QQERTKLRPVAMVAPTVRVQPQL [R (bar 14 of FIG 27)]
QQERTKLRPVAMVRPAVRVQPQL [T (bar 16 of FIG 27)]
QQERTKLRPVAMVRPTARVQPQL [V (bar 17 of FIG 27)]
QQERTKLRPVAMVRPTVAVQPQL [R (bar 18 of FIG 27, asterisk)]
QQERTKLRPVAMVRPTVRAQPQL [V (bar 19 of FIG 27)]
QQERTKLRPVAMVRPTVRVAPQL [Q (bar 20 of FIG 27)]
QQERTKLRPVAMVRPTVRVQAQL [P (bar 21 of FIG 27)]
QQERTKLRPVAMVRPTVRVQPAL [Q (bar 22 of FIG 27)]
QQERTKLRPVAMVRPTVRVQPQA [L (bar 23 of FIG 27)]
AQERTKLRPVAMVRPTVRVQPQL [Q (bar 1 of FIG 27)]
QAERTKLRPVAMVRPTVRVQPQL [Q (bar 2 of FIG 27)]
QQARTKLRPVAMVRPTVRVQPQL [E (bar 3 of FIG 27)]
QQEATKLRPVAMVRPTVRVQPQL [R (bar 4 of FIG 27)]
QQERAKLRPVAMVRPTVRVQPQL [T (bar 5 of FIG 27)]
